PubChem BioAssay AID493014 (National Center for Advancing Translational Sciences (NCATS), 2011)
The list shows a part of the results. Shown are side measurements of this screen, not its main read-out; they come without a call. Most of these compounds were active or inconclusive in the main read-out, so they are no random draw. Potencies come from curve fits of mixed quality, noted in brackets.

Experiment: qHTS Assay to Find Inhibitors of Chronic Active B-Cell Receptor Signaling
Conditions: ABC-DLBCL IkBa-CBG/CBR reporter, luminescence ratio (green luciferase fused to IkBa over red control in TMD8 lymphoma cells), 4 h
Summary of the method: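 TMD8 human ABC-DLBCL cells with doxycycline-inducible IκBα–green luciferase fusion and unfused red luciferase, in 0.5% FBS medium; compounds up to 46 uM, 4 h at 37C. Green/red luminescence ratio, filter-overlap corrected, fitted to concentration-response curves.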

[1] = measured here: CBR red luminescence, cell number
[2] = measured here: IkBa-CBG green luminescence

With `CCC1CCCCN1CCCNC(=O)CN1C(=O)CSc2ccc(S(=O)(=O)N3CCC(C)CC3)cc21` (stereo unspecified) the AC50 [1] was 35.5 µM [falling, single point].
In the case of `O=C(Oc1c(CN2CCOCC2)cc(Cl)c2cccnc12)c1ccccc1`, the AC50 [1] is reported as 14.1 µM [rising, single point] and the AC50 [2] is reported as 4.47 µM [falling, single point].
With `COc1ccccc1OCCNS(=O)(=O)c1ccc2oc3ccccc3c2c1` the AC50 [1] was 8.2 µM [falling, partial curve].
In the case of `CCn1ncc(C2=NOC(C(=O)NCc3ccccc3)C2)c1C` (stereo unspecified), the AC50 [1] is reported as 14.6 µM [rising, partial curve, poor fit] and the AC50 [2] is reported as 11.6 µM [falling, partial curve].
With `COc1ccc(C(=O)N/C(=C\c2cccc([N+](=O)[O-])c2)C(=O)Nc2cccc(C(=O)O)c2)cc1` the AC50 [1] was 3.55 µM [rising, full curve, poor fit].
In the case of `Nc1ccc(C(=O)Oc2ccc([N+](=O)[O-])cc2)cc1`, the AC50 [1] is reported as 25.1 µM [rising, partial curve, poor fit].
With `Clc1ccc2c(N/N=C/c3ccc(Br)cc3)ccnc2c1` the AC50 [1] was 6.51 µM [rising, single point].
For `CC(C)(C)OC(=O)CNC(=O)c1[nH]cnc1C(=O)N[C@@H](Cc1ccccc1)C(=O)OCc1ccccc1`, the AC50 [1] was 5.62 µM [falling, single point].
For `NCCOc1ccccc1Cc1ccccc1`, the AC50 [1] was 23.1 µM [falling, single point].
In the case of `COc1ccc(C(=O)NCC(=O)NCC(=O)OCc2ccc(Br)cc2)cc1`, the AC50 [1] is reported as 7.94 µM [rising, partial curve, poor fit].
With `Cc1ccccc1NC(=O)Cc1c[nH]c2ccccc12` the AC50 [1] was 3.16 µM [falling, partial curve, poor fit].
For `Cc1cc(O)c(C(C)C)cc1N=Cc1ccccc1O`, the AC50 [1] was 3.98 µM [falling, partial curve].
With `Cc1ccc(-c2csc(NC(=O)C3CCN(S(=O)(=O)c4cccs4)CC3)n2)cc1` the AC50 [1] was 7.31 µM [falling, partial curve].
For `COc1ccc(OC)c(C(O)c2coc3ccc(O)c(CN(C)C)c23)c1` (stereo unspecified), the AC50 [1] was 29.1 µM [falling, single point].
For `CCCC(O)(c1ccc(Cl)cc1)C(CN1CCOCC1)c1ccc(Cl)cc1` (stereo unspecified), the AC50 [1] was 35.5 µM [falling, single point].
In the case of `COc1ccc(NC(=O)N(C)C[C@H]2Oc3ccc(NS(=O)(=O)c4ccc(F)cc4)cc3C(=O)N([C@H](C)CO)C[C@@H]2C)cc1`, the AC50 [1] is reported as 29.1 µM [rising, single point].
For `Cc1ccc2c(c1)N(CC(=O)N1CCCC1)C(=O)c1cccnc1O2`, the AC50 [1] was 6.31 µM [falling, single point].
For `COC(=O)/C=c1\sc2ncnn2c1=O`, the AC50 [1] was 29.1 µM [falling, partial curve, poor fit].
For `O=C(COc1ccc(Cl)cc1Cl)NCCCCc1ccccc1`, the AC50 [1] was 15.8 µM [rising, single point].
For `CCN(CC)c1ccc(N2C(=O)CSC2=S)cc1`, the AC50 [1] was 5.62 µM [rising, full curve, poor fit].
With `N#Cc1ccc(-c2ccc(Cl)cc2)nc1SCC(=O)c1cccc(Cl)c1` the AC50 [1] was 0.82 µM [falling, full curve, poor fit].
In the case of `Cc1cccn2c(=O)c(/C=C(\C#N)S(=O)(=O)c3ccc(Cl)cc3)c(N3CCC(C(N)=O)CC3)nc12`, the AC50 [1] is reported as 0.103 µM [falling, full curve, poor fit].
For `C=CCSC1=N/C(=C\c2ccc3c(c2)OCO3)C(=O)S1`, the AC50 [1] was 8.91 µM [rising, partial curve, poor fit].
For `CCOC(=O)CSC1=NC(=O)/C(=C\c2ccc(Cl)cc2)S1`, the AC50 [1] was 22.4 µM [falling, single point].
In the case of `Cc1cc(Cl)ccc1OCC(=O)Nc1ccccc1CO`, the AC50 [1] is reported as 0.58 µM [rising, partial curve, poor fit].
For `OCC1(CO)COC(c2ccccc2)=N1`, the AC50 [1] was 1.78 µM [rising, partial curve, poor fit].
In the case of `COc1ccc(C)cc1Nc1n[n+](C)c(-c2ccc(C(=O)O)cc2)s1`, the AC50 [1] is reported as 0.398 µM [falling, full curve, poor fit].
With `CCNC(=S)N/N=C1\CCCCc2ccccc21` the AC50 [2] was 18.4 µM [falling, single point].
In the case of `Cc1ccc(C(=O)NC(c2ccccc2)C(Cl)Cl)cc1` (stereo unspecified), the AC50 [1] is reported as 14.6 µM [falling, partial curve].
With `COc1ccc(C(=O)NC(=S)Nc2ccc3c(c2)Cc2ccccc2-3)cc1` the AC50 [1] was 10.3 µM [rising, partial curve, poor fit].
For `CCS(=O)(=O)Nc1cccc(C2=NN(C(=O)c3ccco3)C(c3ccco3)C2)c1` (stereo unspecified), the AC50 [1] was 5.01 µM [falling, partial curve].
With `CCCNC(=O)Cc1c(C)oc2ccccc12` the AC50 [1] was 5.62 µM [rising, full curve, poor fit].
In the case of `CC(C)CC(=O)NC(=S)Nc1ccc(NC(=O)c2cccs2)cc1`, the AC50 [1] is reported as 29.1 µM [rising, single point].
In the case of `CN(C)C(=O)CCc1ccc2c3c([nH]c2c1)[C@]1(C)[C@@H](C(=O)N2CCOCC2)C[C@H](CC(=O)NCc2ccco2)C(=O)N1CC3`, the AC50 [1] is reported as 20.6 µM [rising, partial curve, poor fit].
In the case of `O=C(Nc1ccc(Cl)cc1)N(Cc1nc2ccccc2c(=O)[nH]1)Cc1cccs1`, the AC50 [1] is reported as 29.1 µM [falling, single point] and the AC50 [2] is reported as 29.1 µM [rising, partial curve, poor fit].
For `CCOC(=O)c1c(-c2ccccc2Cl)cn2ccccc12`, the AC50 [1] was 0.58 µM [rising, partial curve, poor fit].
With `Cc1cc(C)nc(NS(=O)(=O)c2ccc(NC(=O)COc3ccccc3)cc2)n1` the AC50 [1] was 11.2 µM [falling, single point].
For `CCc1cccc(NC(=O)CN(C)S(=O)(=O)c2cnc[nH]2)c1`, the AC50 [1] was 22.4 µM [falling, single point].
For `CCOc1ccc(CN2CCN(Cc3cccc4nonc34)CC2CCO)cc1` (stereo unspecified), the AC50 [1] was 35.5 µM [rising, single point].
With `COc1ccc(F)cc1C(=O)C1CCCN(Cc2cnc(N3CCCC3)s2)C1` (stereo unspecified) the AC50 [1] was 20 µM [falling, single point].
In the case of `CC(C(=O)NCC1CCCO1)N1C(=O)C2C3CC(C(Br)C3Br)C2C1=O` (stereo unspecified), the AC50 [1] is reported as 5.62 µM [rising, single point].
In the case of `CCn1c(/C=C/N(C)c2ccccc2)[n+](CC)c2ccc(Cl)cc21`, the AC50 [1] is reported as 14.6 µM [falling, single point].
For `Cc1cccc(-c2noc(CCCOc3ccc(Cl)cc3Cl)n2)c1`, the AC50 [1] was 13 µM [rising, single point].
In the case of `CC1CN(CC(=O)c2c(N)n(Cc3ccccc3)c(=O)n(C)c2=O)CC(C)O1` (stereo unspecified), the AC50 [1] is reported as 29.1 µM [rising, single point].
With `COc1ccc2nc(NC(=O)Nc3cccc4ccccc34)sc2c1` the AC50 [1] was 2.82 µM [falling, full curve, poor fit].
In the case of `N#CCCCc1cc2cc(F)ccc2cn1`, the AC50 [1] is reported as 20.6 µM [rising, single point].
With `CCOC(=O)C1CCN(C(=O)c2oc3ccc(S(=O)(=O)N4CC(C)CC(C)C4)cc3c2C)CC1` (stereo unspecified) the AC50 [1] was 18.4 µM [falling, single point].
With `O=C(N/N=C/c1ccc(Cl)cc1)c1n[nH]c2c1CCCC2` the AC50 [1] was 3.55 µM [rising, partial curve, poor fit] and the AC50 [2] was 3.16 µM [falling, full curve].
With `COc1ccc(C23CC4CC(CC(C(=O)O)(C4)C2)C3)c(F)c1` the AC50 [1] was 10 µM [rising, partial curve].
With `CC(=O)c1ccc(N2CCN(C(=O)c3ccc(Cn4c(=O)[nH]c5ccccc5c4=O)cc3)CC2)cc1` the AC50 [1] was 3.98 µM [rising, partial curve, poor fit].
With `COc1ccc(-c2cc(C(=O)N3CCN(c4ccccc4OC)CC3)no2)cc1` the AC50 [1] was 12.6 µM [falling, single point].
With `CC(C)CC(NC(=O)C1CCC(C)CC1)C(=O)NCc1ccccn1` (stereo unspecified) the AC50 [1] was 3.66 µM [rising, single point].
For `COc1ccc(C(CNC(=O)c2cc(=O)[nH]c3ccccc23)N2CCCC2)cc1` (stereo unspecified), the AC50 [1] was 12.6 µM [rising, single point].
For `COc1ccccc1Sc1nc(-c2ccccn2)ncc1OC`, the AC50 [1] was 22.4 µM [falling, single point].
For `O=C(/C=C/c1ccc(F)cc1)NC(=S)N1CCN(c2ccccn2)CC1`, the AC50 [1] was 12.6 µM [falling, partial curve, poor fit].
For `COc1ccc(NC(=O)COc2ccccc2)cc1NC(=O)c1ccco1`, the AC50 [1] was 22.4 µM [falling, single point].
With `Cc1ccccc1C(=O)NNC(=S)Nc1cccc(C(F)(F)F)c1` the AC50 [1] was 20.6 µM [falling, partial curve, poor fit].
In the case of `COC(=O)c1cccc(NC(=O)CCc2ccccc2)c1`, the AC50 [1] is reported as 11.6 µM [falling, partial curve].
For `N#Cc1ccsc1NC(=O)CSc1nnnn1-c1ccc(O)cc1`, the AC50 [1] was 7.08 µM [falling, full curve].
With `Cn1c(=O)c2c(ncn2CC(=O)N2CCc3ccccc3C2)n(C)c1=O` the AC50 [1] was 0.631 µM [falling, partial curve, poor fit].
For `COc1ccc(-c2nnc(-c3ccc(N)cc3)o2)cc1`, the AC50 [1] was 0.0058 µM [falling, full curve, poor fit].
For `Cc1ccc(C2=NN(C(=O)CSc3nc(N)cc(N)n3)C(c3ccco3)C2)cc1` (stereo unspecified), the AC50 [2] was 20.6 µM [falling, partial curve, poor fit].
